Measurements reported in patent publication US20030099990A1.
These are yes or no findings as the source states them, for the method shown. Some entries that bind do so weakly or less than the wild type.

Sequences of proteins named here, by UniProt entry; tags and fusion partners are left off. Residues count along the entry.
UniProt Q9Y275, residues 134-285: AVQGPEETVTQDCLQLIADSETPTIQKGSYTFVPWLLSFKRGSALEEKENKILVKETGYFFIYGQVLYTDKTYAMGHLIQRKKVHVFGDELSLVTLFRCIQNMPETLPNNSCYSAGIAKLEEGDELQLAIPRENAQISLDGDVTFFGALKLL

Key:
[1] = target: T1, human TALL-1R polypeptide encoded by clone 706, on transfected 293 cells (human); assay: FACS on transfected 293 cells, 1 µg/ml FLAG-TALL-1 with or without 10 µg/ml TACI-Fc, FITC anti-FLAG M2
T1 sequence: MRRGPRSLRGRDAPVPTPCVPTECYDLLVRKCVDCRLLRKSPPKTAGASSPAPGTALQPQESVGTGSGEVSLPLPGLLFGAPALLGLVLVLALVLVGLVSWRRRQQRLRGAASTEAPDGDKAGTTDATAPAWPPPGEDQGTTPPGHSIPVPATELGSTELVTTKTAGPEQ

[2] = target: T2, human TALL-1R polypeptide encoded by clone 711, on transfected 293 cells (human); assay: as above
T2 sequence: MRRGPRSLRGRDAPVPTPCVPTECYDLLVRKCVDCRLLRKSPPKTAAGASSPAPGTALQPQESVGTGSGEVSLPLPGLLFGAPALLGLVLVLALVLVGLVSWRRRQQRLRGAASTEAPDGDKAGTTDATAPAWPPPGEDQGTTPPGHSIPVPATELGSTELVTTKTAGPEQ

[3] = target: T3, human TALL-1R polypeptide encoded by clone 713, on transfected 293 cells (human); assay: europium-labeled TALL-1 binding to 293 cells transfected with single clones (clone 713, named in paragraph 372)
T3 sequence: T2 sequence

[4] = target: T1, human TALL-1R polypeptide encoded by clone 706, on transfected 293 cells (human); assay: europium-labeled TALL-1 binding to 293 cells transfected with single clones (clone 706, named in paragraph 372)
[5] = target: T2, human TALL-1R polypeptide encoded by clone 711, on transfected 293 cells (human); assay: europium-labeled TALL-1 binding to 293 cells transfected with single clones (clone 711, named in paragraph 372)
[6] = target: T4, human TALL-1R polypeptide encoded by clone 710, on transfected 293 cells (human); assay: europium-labeled TALL-1 binding to 293 cells transfected with single clones (clone 710, named in paragraph 372)
T4 sequence: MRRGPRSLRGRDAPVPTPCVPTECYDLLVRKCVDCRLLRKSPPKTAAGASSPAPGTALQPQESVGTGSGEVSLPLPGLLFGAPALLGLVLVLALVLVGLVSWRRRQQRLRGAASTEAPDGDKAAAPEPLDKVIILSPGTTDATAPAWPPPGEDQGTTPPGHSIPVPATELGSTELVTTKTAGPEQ

Measured: binding

FLAG-TALL-1 (from UniProt Q9Y275 134-285) (ligand)
binds: [1] | [2]

europium-labeled TALL-1 protein (from UniProt Q9Y275 134-285) (ligand)
binds: [3] | [4] | [5] | [6]
